Data as given in PubChem BioAssay AID686938 (Drosophila RNAi Screening Center, 2013)
The screen tested about 23,000 reagents; shown is a random part of those that have a named target and a result. Of all reagents, 75 (0.33%) got an active call. 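Raw plate signals without normalisation; calls rest on plate z-scores that were not deposited; ratio present for only 364 wells.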 A number with no mark means an inactive call. Names joined by + are all predicted targets of the reagent. Reagent sequences are not shown. Not given: the dose of the treatment.

- Purpose: 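Knock-downs reducing store-operated calcium influx in Drosophila cells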 (primary screen)
- Cells: Drosophila S2R+ cells
- Knock-down reagent: long dsRNA against Drosophila genes, about 0.25 µg dsRNA per well, roughly 10,000 cells
- Duration: 5 days of knock-down before the calcium assay
- Treatment: thapsigargin (SERCA pump blocker) to empty calcium stores; entry signal taken 4 min after adding it
- Detection: 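Duplicate raw fluo-4 intensities per well from a plate reader, at rest and four minutes after thapsigargin emptied calcium stores; entry-to-rest ratio filled for only some wells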
- Direction: calcium entry signal: higher = stronger calcium signal after store depletion; entry to resting ratio: higher = more calcium entry relative to resting level; resting calcium signal: higher = higher resting calcium signal
- Rule for the call: 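Hit if the duplicate-averaged plate z-score for entry over resting signal is under −3; wells with weak total dye signal (Fmax z < −2) or more than 5 off-targets removed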
- Meaning of the calls: active = strongly reduced calcium entry; inactive = no strong reduction

| predicted target | DRSC id | calcium entry signal, replicate 1 (fluorescence units) | calcium entry signal, replicate 2 (fluorescence units) | entry to resting ratio | resting calcium signal, replicate 1 (fluorescence units) | resting calcium signal, replicate 2 (fluorescence units) |
| --- | --- | --- | --- | --- | --- | --- |
| CG15464 (retired record) | DRSC18047 | 3.04e7 | 4.56e7 | – | 1.54e7 | 2.20e7 |
| CG15464 (retired record) | DRSC22086 | 3.86e7 | 4.11e7 | – | 1.81e7 | 2.40e7 |
| Tpi | DRSC16888 | 2.66e7 | 4.58e7 | – | 1.32e7 | 2.01e7 |
| CG32554 | DRSC22713 | 3.16e7 | 2.86e7 | – | 1.81e7 | 1.30e7 |
| CG4734 | DRSC06885 | 2.82e7 | 4.05e7 | – | 1.47e7 | 1.89e7 |
| CG4734 | DRSC22072 | 3.03e7 | 6.71e7 | – | 1.50e7 | 3.48e7 |
| Uxs | DRSC10941 | 4.53e7 | 4.29e7 | – | 2.90e7 | 1.81e7 |
| CG13324 | DRSC06361 | 2.17e7 | 3.04e7 | – | 1.07e7 | 1.34e7 |
| CG43341 | DRSC05055 | 2.48e7 | 3.31e7 | – | 1.18e7 | 1.53e7 |
| beta-PheRS | DRSC15859 | 2.92e7 | 2.53e7 | – | 1.47e7 | 1.28e7 |
| G9a | DRSC18619 | 4.15e7 | 6.05e7 | 2.2 | 1.89e7 | 2.33e7 |
| CG11164 | DRSC19392 | 4.79e7 | 3.82e7 | – | 2.36e7 | 1.84e7 |
| CG43058 | DRSC05434 | 5.41e7 | 4.00e7 | – | 2.22e7 | 1.69e7 |
| St3 | DRSC04098 | 3.41e7 | 5.18e7 | – | 1.85e7 | 2.42e7 |
| St3 | DRSC04505 | 4.09e7 | – | – | 2.18e7 | – |
| Fcp1 | DRSC04121 | 3.61e7 | – | – | 1.88e7 | – |
| cold | DRSC00538 | 4.34e7 | – | – | 2.02e7 | – |
| Tab2 | DRSC07481 | 4.52e7 | 3.84e7 | – | 2.13e7 | 1.92e7 |
| Agps | DRSC05984 | 3.76e7 | 4.27e7 | – | 2.02e7 | 2.02e7 |
| sordd2 + sordd1 | DRSC20136 | 3.64e7 | 3.69e7 | – | 1.66e7 | 1.63e7 |
| wkd | DRSC15777 | 4.53e7 | 3.79e7 | – | 2.13e7 | 1.86e7 |
| Irk1 | DRSC14686 | 4.07e7 | 6.31e7 | – | 2.05e7 | 2.52e7 |
| Irk1 | DRSC16106 | 4.07e7 | 6.40e7 | – | 2.33e7 | 2.87e7 |
| TTLL6B | DRSC15932 | 3.66e7 | 6.25e7 | – | 1.93e7 | 2.56e7 |
| CG8209 | DRSC10970 | 3.74e7 | 4.26e7 | – | 1.85e7 | 2.09e7 |
| CR30029 | DRSC06724 | 2.79e7 | 2.86e7 | – | 1.37e7 | 1.30e7 |
| slf | DRSC00583 | 3.23e7 | 3.32e7 | – | 1.56e7 | 1.54e7 |
| CG42816 | DRSC11230 | 4.56e7 | 6.68e7 | – | 2.33e7 | 2.71e7 |
| Prosalpha4 | DRSC20271 | 3.27e7 | 1.78e7 | – | 1.69e7 | 9.31e6 |
| APC4 | DRSC18360 | 2.79e7 (active) | 2.72e7 | – | 1.72e7 | 1.87e7 |
| Gcat | DRSC09719 | 2.50e7 | 3.13e7 | – | 1.26e7 | 1.32e7 |
| Hsp60C | DRSC03036 | 2.55e7 | 2.29e7 | – | 1.24e7 | 1.03e7 |
| Obp99a | DRSC15303 | 2.72e7 | 3.56e7 | – | 1.58e7 | 1.79e7 |
| CG34281 | DRSC14807 | 2.95e7 | 5.34e7 | – | 1.67e7 | 6.26e7 |
| nod | DRSC18900 | 3.12e7 | 2.98e7 | – | 1.57e7 | 1.41e7 |
| nod | DRSC20356 | 3.34e7 | 4.03e7 | – | 1.61e7 | 1.89e7 |
| aub | DRSC03486 | 4.39e7 | – | – | 1.86e7 | – |
| Dop1R1 | DRSC13020 | 3.92e7 | 3.75e7 | – | 2.20e7 | 1.81e7 |
| Dop1R1 | DRSC13021 | 3.59e7 | 4.12e7 | – | 2.07e7 | 1.88e7 |
| Dop1R1 | DRSC16652 | 2.00e7 | 4.53e7 | – | 1.03e7 | 5.07e7 |
| CG31010 | DRSC14006 | 2.77e7 | 3.64e7 | – | 1.33e7 | 1.45e7 |
| ana2 | DRSC05952 | 4.29e7 | 4.29e7 | – | 1.84e7 | 2.37e7 |
| EloA | DRSC16109 | 4.43e7 | 3.84e7 | – | 1.93e7 | 1.60e7 |
| fdl | DRSC07279 | 3.42e7 | 3.46e7 | – | 1.75e7 | 1.72e7 |
| CG6873 | DRSC20014 | 1.30e7 | 2.98e7 | – | 8.02e6 | 1.50e7 |
| Diap2 | DRSC07444 | 2.71e7 | 2.28e7 | – | 1.29e7 | 1.45e7 |
| GAA1 | DRSC18267 | 2.70e7 | 2.94e7 | – | 1.25e7 | 1.41e7 |
| Tsp74F | DRSC10508 | 5.25e7 | 8.24e7 | – | 2.37e7 | 3.25e7 |
| Pi3K21B | DRSC00771 | 4.07e7 | – | – | 2.17e7 | – |
| SPE | DRSC15135 | 4.54e7 | 4.11e7 | – | 2.06e7 | 1.91e7 |
| GluRIB | DRSC10258 | 1.77e7 | 2.13e7 | – | 9.67e6 | 9.95e6 |
| GluRIB | DRSC11177 | 1.85e7 | 2.64e7 | – | 9.89e6 | 1.19e7 |
| Twdlalpha | DRSC19914 | 3.51e7 | 3.21e7 | – | 1.80e7 | 1.27e7 |
| robl | DRSC07674 | 5.87e7 | 5.50e7 | – | 2.57e7 | 2.72e7 |
| CG6059 | DRSC15958 | 4.31e7 | 4.76e7 | – | 1.99e7 | 2.18e7 |
| RpS15 | DRSC07151 | 1.39e7 | 9.57e6 | – | 1.17e7 | 7.68e6 |
| Usf | DRSC18129 | 3.62e7 | 4.06e7 | – | 1.79e7 | 2.03e7 |
| CG14052 | DRSC17907 | 5.06e7 | 5.38e7 | 2.2 | 2.33e7 | 2.06e7 |
| CG14052 | DRSC18192 | 3.60e7 | 5.41e7 | 1.9 | 1.90e7 | 2.27e7 |
